Data from article PMC7943793.
No constants are given. Whether binding was seen depends on the method and setting. Some entries that bind do so weakly or less than the wild type.

Molecular target: Tet Methylcytosine Dioxygenase 2 (TET2), purified from Sf9 (human), Q6N021
Test: pull-down; in vitro pulldown with proteins purified from Sf9; CXXC5 incubated with AR and TET2 together; by the methods His-tagged CXXC5 held on Ni-NTA beads, binding buffer with 10 mM imidazole, 4 h at 4 °C; both purified
Details: remark: other sources report otherwise

B1: Androgen receptor (AR), purified from Sf9, P10275 1-920 (protein)
chain: MEVQLGLGRVYPRPPSKTYRGAFQNLFQSVREVIQNPGPRHPEAASAAPPGASLLLLQQQQQQQQQQQQQQQQQQQQQQQETSPRQQQQQQGEDGSPQAHRRGPTGYLVLDEEQQPSQPQSALECHPERGCVPEPGAAVAASKGLPQQLPAPPDEDDSAAPSTLSLLGPTFPGLSSCSADLKDILSEASTMQLLQQQQQEAVSEGSSSGRAREASGAPTSSKDNYLGGTSTISDNAKELCKAVSVSMGLGVEALEHLSPGEQLRGDCMYAPLLGVPPAVRPTPCAPLAECKGSLLDDSAGKSTEDTAEYSPFKGGYTKGLEGESLGCSGSAAAGSSGTLELPSTLSLYKSGALDEAAAYQSRDYYNFPLALAGPPPPPPPPHPHARIKLENPLDYGSAWAAAAAQCRYGDLASLHGAGAAGPGSGSPSAAASSSWHTLFTAEEGQLYGPCGGGGGGGGGGGGGGGGGGGGGGGEAGAVAPYGYTRPPQGLAGQESDFTAPDVWYPGGMVSRVPYPSPTCVKSEMGPWMDSYSGPYGDMRLETARDHVLPIDYYFPPQKTCLICGDEASGCHYGALTCGSCKVFFKRAAEGKQKYLCASRNDCTIDKFRRKNCPSCRLRKCYEAGMTLGARKLKKLGNLKLQEEGEASSTTSPTEETTQKLTVSHIEGYECQPIFLNVLEAIEPGVVCAGHDNNQPDSFAALLSSLNELGERQLVHVVKWAKALPGFRNLHVDDQMAVIQYSWMGLMVFAMGWRSFTNVNSRMLYFAPDLVFNEYRMHKSRMYSQCVRMRHLSQEFGWLQITPQEFLCMKALLLFSIIPVDGLKNQKFFDELRMNYIKELDRIIACKRKNPTSCSRRFYQLTKLLDSVQPIARELHQFTFDLLIKSHMVSVDFPEMMAEIISVQVPKILSGKVKPIYFHTQ
B1 was tested, and the binding was “binds”.
